Results deposited as PubChem BioAssay AID1224828 (NIAID, 2016)
The deposit covers about 17,000 reagents; below is a part drawn at random. In the full data, 762 (4.5%) are marked active. 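Active calls include both raised and lowered p65 entry, mostly lowered; wells with fewer than 50 cells lack a z-score.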 Raw values are not corrected between plates. Reagents against one gene are numbered here.

- Purpose: 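Find genes required for NF-kappaB p65 moving into the nucleus after LPS in mouse macrophages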 (primary screen)
- Cell system: mouse RAW264.7 G9 macrophage reporter cells (GFP-p65, Tnf promoter-mCherry)
- Reagent: siRNA pool against mouse genes, 100 nM
- Time to read-out: 2 days siRNA transfection, then 40 min LPS before fixation
- Conditions: LPS (Salmonella minnesota R595) at 10 ng/ml
- Measurement: 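Imaged p65 nuclear translocation ratio, normalised to the plate median, converted to robust z-scores and averaged across two replicates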
- Reading the numbers: p65 translocation robust z-score: higher = more nuclear NF-kappaB p65 after LPS than the plate median; nuclear/cytoplasmic p65 ratio: higher = more nuclear NF-kappaB p65
- Call rule: 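Called active when z exceeds 3.3 or falls under -1.56 (median of Tlr4 controls), giving activity score of at least 50; no calls for control wells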
- Calls: active = hit (p65 shift raised or lowered); inactive = no clear change

Gene	reagent	p65 translocation robust z-score	nuclear/cytoplasmic p65 ratio, rep 1	nuclear/cytoplasmic p65 ratio, rep 2	low cell count flag	activity call
Nphs1	1		1.45	1.28	fewer than 50 cells per well; well left out of scoring	inactive
Zfyve26	1	1.64	1.66	1.68	enough cells to score	inactive
Gtf3a	1	1.13	1.9	1.63	enough cells to score	inactive
Amhr2	1	0.72	1.89	1.41	enough cells to score	inactive
Vps52	1	0.53	1.6	1.56	enough cells to score	inactive
Rbm47	1	0.02	1.59	1.83	enough cells to score	inactive
Mettl1	1	0.05	1.69	1.58	enough cells to score	inactive
Slc2a8	1	-0.11	1.55	1.46	enough cells to score	inactive
Scg3	1	-0.39	1.43	1.49	enough cells to score	inactive
Pfn1	1	0.42	1.45	1.52	enough cells to score	inactive
H1f3	1	1.58	2.02	1.65	enough cells to score	inactive
Cdt1	1	-0.45	1.44	1.17	enough cells to score	inactive
P3h2	1	-0.25	1.58	1.59	enough cells to score	inactive
Ptpn18	1	0.98	1.55	1.61	enough cells to score	inactive
Meis3	1	-2.44	1.27	1.33	enough cells to score	active
Pcsk1n	1	-0.05	1.17	1.24	enough cells to score	inactive
St8sia2	1	1.36	1.63	1.37	enough cells to score	inactive
Zfp637	1	-1.2	1.69	1.23	enough cells to score	inactive
Vsig2	1	0.34	1.63	1.7	enough cells to score	inactive
Chrna4	1	-0.54	1.52	1.31	enough cells to score	inactive
Vmp1	1	-1.61	1.08	1.1	enough cells to score	active
Slc16a13	1	-1.05	1.26	1.21	enough cells to score	inactive
Svs5	1	-0.58	1.37	1.14	enough cells to score	inactive
Topbp1	1	0.46	1.55	1.62	enough cells to score	inactive

4 entries already listed, sorted by “p65 translocation robust z-score”, highest first.
Gene	reagent	p65 translocation robust z-score	nuclear/cytoplasmic p65 ratio, rep 1	nuclear/cytoplasmic p65 ratio, rep 2	low cell count flag	activity call
Ptpn18	1	0.98	1.55	1.61	enough cells to score	inactive
P3h2	1	-0.25	1.58	1.59	enough cells to score	inactive
Cdt1	1	-0.45	1.44	1.17	enough cells to score	inactive
Meis3	1	-2.44	1.27	1.33	enough cells to score	active

Continued.
Gene	reagent	p65 translocation robust z-score	nuclear/cytoplasmic p65 ratio, rep 1	nuclear/cytoplasmic p65 ratio, rep 2	low cell count flag	activity call
1110059G10Rik	1	-0.27	1.46	1.45	enough cells to score	inactive
Eif2ak4	1		1.49	1.52	fewer than 50 cells per well; well left out of scoring	inactive
Postn	1	-0.72	1.39	1.33	enough cells to score	inactive
Ctbs	1	-0.78	1.54	1.57	enough cells to score	inactive
H2-M10.1	1	-0.54	1.48	1.48	enough cells to score	inactive
Acox1	1	1.32	1.83	1.8	enough cells to score	inactive
Arglu1	1	-0.19	1.36	1.56	enough cells to score	inactive
Angptl1	1	-0.02	1.62	1.61	enough cells to score	inactive
1700049L16Rik	1		1.45	1.35	fewer than 50 cells per well; well left out of scoring	inactive
Hs6st1	1	-2.12	1.5	1.26	enough cells to score	active
H2-M9	1	0.75	1.73	1.68	enough cells to score	inactive
Or1ad1	1	-0.33	1.47	1.54	enough cells to score	inactive
Kcnh1	1	0.87	1.64	1.45	enough cells to score	inactive
Chrng	1	-0.72	1.4	1.26	enough cells to score	inactive
Vmn1r228	1		1.15	1.16	fewer than 50 cells per well; well left out of scoring	inactive
Cab39	1	-0.26	1.49	1.81	enough cells to score	inactive
Minar2	1	-0.25	1.41	1.43	enough cells to score	inactive
Usp11	1	-0.19	1.51	1.46	enough cells to score	inactive
Pop1	1	0.66	1.18	1.29	enough cells to score	inactive
Gnmt	1	0.11	1.43	1.41	enough cells to score	inactive
Or14a260	1	0.28	1.65	1.33	enough cells to score	inactive
Xlr4b	1		1.15	1.19	fewer than 50 cells per well; well left out of scoring	inactive
Psd2	1		1.49	1.21	fewer than 50 cells per well; well left out of scoring	inactive
Sox4	1	-0.65	1.43	1.48	enough cells to score	inactive
Abraxas1	1	-0.09	1.41	1.38	enough cells to score	inactive
Abraxas1	2	-1.1	1.24	1.13	enough cells to score	inactive
Recql5	1	0.14	1.48	1.59	enough cells to score	inactive
Ly96	1		1.21	1.03	fewer than 50 cells per well; well left out of scoring	inactive
Ankrd34b	1	-0.9	1.19	1.4	enough cells to score	inactive
Kat8	1	-0.75	1.67	1.51	enough cells to score	inactive
Nr4a2	1	1.22	1.58	1.6	enough cells to score	inactive
1700052K11Rik	1		1.58	1.7	fewer than 50 cells per well; well left out of scoring	inactive
Ywhag	1	0.02	1.54	1.45	enough cells to score	inactive
Gxylt2	1	-0.23	1.46	1.43	enough cells to score	inactive
Samt3	1	-0.61	1.35	1.34	enough cells to score	inactive
